The other results are listed elsewhere or left out. Most entries show no effect beyond the scatter of the controls.
compound: CN[C@@H]1C[C@H]2O[C@@](C)([C@@H]1OC)n1c3ccccc3c3c4c(c5c6ccccc6n2c5c31)C(=O)NC4 [staurosporine]; test: log2 fold change of tryptic peptide abundance, ligand vs vehicle (limited proteolysis) (log2 ratio); higher = more trypsin-susceptible (destabilized); conditions: ligand concentration: 20 uM; sample: K562 cleared lysate; digestion: 4 min, 22 C (HT-PELSA RT4min, Orbitrap Astral)

The chains behind the UniProt entries cited, without tags or fusion partners. Where a name states a change or a piece, a line headed by the entry shows the natural chain unless it says otherwise.
UniProt P61019: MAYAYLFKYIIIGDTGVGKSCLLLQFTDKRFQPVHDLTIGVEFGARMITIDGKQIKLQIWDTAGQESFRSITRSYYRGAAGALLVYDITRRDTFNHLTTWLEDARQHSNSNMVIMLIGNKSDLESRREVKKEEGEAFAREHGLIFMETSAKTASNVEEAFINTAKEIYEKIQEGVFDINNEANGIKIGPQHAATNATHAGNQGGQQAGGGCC
UniProt P61244, whole entry: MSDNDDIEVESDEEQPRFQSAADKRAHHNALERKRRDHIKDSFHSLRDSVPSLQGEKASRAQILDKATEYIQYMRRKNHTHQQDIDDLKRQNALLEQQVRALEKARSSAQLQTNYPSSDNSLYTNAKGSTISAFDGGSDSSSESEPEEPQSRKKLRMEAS
UniProt P55209: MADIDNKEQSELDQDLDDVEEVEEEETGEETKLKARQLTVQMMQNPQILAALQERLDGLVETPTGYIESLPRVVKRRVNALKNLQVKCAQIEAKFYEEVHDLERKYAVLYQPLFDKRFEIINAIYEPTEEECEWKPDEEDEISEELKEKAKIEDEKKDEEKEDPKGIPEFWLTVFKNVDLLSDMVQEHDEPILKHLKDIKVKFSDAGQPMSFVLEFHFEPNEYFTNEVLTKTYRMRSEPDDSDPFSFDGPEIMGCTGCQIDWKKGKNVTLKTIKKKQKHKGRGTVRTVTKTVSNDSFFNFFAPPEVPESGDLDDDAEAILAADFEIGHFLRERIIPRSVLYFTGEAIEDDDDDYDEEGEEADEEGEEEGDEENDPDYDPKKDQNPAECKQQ
UniProt P82970: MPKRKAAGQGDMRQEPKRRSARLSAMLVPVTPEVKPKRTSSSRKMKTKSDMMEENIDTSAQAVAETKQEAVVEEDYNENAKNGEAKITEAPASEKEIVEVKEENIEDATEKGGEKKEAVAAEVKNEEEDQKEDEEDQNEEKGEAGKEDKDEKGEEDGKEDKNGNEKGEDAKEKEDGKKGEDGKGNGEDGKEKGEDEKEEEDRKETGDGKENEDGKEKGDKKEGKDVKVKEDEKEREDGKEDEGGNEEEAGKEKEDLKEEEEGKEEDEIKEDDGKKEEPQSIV
UniProt P78509: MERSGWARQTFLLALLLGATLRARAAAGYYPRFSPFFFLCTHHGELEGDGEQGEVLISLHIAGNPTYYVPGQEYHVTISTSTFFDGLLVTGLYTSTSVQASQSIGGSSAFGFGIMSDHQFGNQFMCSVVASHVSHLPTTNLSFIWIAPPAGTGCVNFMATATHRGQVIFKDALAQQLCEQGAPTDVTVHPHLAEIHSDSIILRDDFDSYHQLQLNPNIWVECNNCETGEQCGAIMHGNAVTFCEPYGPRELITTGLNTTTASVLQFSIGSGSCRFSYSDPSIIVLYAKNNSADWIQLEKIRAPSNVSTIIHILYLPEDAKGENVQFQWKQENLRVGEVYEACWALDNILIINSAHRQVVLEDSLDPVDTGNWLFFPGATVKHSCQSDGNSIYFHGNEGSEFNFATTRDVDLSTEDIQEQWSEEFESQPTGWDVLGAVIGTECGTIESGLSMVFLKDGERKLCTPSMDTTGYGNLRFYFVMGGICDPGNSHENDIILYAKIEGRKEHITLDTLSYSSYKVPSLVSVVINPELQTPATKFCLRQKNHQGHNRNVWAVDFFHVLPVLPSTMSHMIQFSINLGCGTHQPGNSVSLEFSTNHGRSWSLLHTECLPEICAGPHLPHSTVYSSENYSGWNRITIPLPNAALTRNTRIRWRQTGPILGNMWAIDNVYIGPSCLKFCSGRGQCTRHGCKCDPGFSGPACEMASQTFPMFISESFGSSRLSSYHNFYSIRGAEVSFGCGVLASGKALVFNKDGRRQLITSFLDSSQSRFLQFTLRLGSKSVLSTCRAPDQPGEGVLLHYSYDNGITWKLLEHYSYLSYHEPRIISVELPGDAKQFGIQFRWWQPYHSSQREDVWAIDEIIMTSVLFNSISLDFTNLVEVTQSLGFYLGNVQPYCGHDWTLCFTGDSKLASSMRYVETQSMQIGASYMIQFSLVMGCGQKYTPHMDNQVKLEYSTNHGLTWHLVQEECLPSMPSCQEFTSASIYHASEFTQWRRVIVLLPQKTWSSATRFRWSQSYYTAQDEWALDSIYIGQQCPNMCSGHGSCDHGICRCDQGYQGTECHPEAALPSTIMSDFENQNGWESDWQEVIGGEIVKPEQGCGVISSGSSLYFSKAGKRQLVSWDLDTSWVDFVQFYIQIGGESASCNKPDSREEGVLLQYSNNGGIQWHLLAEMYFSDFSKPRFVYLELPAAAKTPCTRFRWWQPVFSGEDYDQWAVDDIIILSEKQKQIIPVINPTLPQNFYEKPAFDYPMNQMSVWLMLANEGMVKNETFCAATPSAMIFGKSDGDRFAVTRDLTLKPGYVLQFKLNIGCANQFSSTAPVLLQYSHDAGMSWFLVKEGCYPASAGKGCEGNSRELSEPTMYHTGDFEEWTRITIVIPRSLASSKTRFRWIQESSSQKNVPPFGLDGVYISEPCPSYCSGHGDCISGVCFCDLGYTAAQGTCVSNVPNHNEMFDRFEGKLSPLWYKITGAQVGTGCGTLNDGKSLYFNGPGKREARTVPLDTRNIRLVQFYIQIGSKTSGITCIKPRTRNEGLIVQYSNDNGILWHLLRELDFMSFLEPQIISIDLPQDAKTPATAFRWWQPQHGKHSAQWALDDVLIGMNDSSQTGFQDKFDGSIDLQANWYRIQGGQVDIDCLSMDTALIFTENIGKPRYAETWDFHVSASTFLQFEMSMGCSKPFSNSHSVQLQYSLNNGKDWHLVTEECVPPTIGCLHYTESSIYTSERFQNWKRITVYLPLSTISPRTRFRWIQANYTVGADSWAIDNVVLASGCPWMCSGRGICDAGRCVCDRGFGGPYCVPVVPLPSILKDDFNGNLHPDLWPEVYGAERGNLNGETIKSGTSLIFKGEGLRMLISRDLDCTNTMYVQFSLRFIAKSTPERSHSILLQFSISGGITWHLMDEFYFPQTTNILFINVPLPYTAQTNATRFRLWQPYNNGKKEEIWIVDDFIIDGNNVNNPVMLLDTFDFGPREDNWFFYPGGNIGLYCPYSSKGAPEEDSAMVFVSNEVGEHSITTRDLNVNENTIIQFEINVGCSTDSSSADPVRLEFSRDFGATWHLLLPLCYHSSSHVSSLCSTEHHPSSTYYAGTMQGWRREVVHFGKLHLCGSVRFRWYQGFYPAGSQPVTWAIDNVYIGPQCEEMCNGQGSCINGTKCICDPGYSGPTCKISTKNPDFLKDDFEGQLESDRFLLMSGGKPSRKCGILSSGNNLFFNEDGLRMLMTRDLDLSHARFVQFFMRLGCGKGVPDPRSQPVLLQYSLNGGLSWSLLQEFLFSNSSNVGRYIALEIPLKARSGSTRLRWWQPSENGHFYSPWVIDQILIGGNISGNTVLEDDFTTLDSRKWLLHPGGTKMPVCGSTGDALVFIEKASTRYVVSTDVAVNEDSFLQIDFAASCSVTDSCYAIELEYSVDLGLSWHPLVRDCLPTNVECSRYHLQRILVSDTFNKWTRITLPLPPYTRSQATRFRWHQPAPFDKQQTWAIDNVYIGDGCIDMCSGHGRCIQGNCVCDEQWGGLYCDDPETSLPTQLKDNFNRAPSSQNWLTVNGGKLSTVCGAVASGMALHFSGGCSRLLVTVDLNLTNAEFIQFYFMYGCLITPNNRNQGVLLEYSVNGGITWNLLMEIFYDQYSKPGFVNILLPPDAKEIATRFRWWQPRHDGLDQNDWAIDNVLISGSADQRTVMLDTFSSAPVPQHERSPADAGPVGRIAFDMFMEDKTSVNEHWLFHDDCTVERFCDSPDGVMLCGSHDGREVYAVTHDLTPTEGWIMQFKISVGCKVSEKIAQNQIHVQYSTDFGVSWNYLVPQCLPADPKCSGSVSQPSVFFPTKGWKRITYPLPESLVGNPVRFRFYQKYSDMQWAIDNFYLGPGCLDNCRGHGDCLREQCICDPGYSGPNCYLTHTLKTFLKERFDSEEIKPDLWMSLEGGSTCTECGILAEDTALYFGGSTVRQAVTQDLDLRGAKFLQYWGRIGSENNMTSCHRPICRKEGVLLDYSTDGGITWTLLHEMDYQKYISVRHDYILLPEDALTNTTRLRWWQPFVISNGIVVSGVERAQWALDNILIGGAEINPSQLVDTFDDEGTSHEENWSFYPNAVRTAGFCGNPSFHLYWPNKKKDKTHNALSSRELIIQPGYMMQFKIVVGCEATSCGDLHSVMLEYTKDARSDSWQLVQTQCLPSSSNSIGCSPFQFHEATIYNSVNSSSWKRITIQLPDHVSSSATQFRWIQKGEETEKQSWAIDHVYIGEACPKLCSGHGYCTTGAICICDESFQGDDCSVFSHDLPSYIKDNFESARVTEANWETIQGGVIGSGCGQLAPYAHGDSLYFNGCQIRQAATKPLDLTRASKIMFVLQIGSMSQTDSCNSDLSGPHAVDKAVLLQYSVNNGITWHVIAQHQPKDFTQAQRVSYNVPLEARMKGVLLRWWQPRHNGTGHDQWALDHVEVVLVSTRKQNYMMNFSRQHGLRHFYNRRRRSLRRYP
UniProt P63313: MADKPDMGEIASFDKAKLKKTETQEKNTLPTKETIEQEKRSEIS
UniProt P55789: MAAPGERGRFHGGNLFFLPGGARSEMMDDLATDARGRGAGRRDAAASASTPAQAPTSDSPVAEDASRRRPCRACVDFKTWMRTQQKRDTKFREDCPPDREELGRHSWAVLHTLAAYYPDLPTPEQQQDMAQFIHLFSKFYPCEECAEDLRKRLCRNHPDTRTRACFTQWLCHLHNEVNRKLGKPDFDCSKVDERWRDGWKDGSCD
UniProt P62834: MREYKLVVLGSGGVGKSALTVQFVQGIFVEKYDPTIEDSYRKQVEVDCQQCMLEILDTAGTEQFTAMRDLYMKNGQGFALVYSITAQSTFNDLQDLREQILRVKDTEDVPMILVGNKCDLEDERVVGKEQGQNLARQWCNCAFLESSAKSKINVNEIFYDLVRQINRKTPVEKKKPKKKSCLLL
UniProt P55199: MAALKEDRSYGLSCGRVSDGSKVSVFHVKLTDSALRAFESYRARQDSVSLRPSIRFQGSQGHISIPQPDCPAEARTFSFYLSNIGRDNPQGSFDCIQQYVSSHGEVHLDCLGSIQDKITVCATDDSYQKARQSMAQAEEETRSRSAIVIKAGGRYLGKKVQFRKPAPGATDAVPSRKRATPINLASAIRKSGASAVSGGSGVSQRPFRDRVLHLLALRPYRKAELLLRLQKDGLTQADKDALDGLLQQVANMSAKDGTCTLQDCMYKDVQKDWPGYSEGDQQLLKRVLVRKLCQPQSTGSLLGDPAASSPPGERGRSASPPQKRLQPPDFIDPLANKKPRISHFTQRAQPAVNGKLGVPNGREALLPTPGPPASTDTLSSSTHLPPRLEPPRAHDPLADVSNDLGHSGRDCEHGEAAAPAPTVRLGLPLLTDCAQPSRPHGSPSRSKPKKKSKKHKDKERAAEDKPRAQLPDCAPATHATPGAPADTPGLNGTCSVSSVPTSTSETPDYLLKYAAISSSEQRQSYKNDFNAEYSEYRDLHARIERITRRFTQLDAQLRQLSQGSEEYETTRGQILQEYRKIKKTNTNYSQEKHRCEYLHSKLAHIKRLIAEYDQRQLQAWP
UniProt P68402: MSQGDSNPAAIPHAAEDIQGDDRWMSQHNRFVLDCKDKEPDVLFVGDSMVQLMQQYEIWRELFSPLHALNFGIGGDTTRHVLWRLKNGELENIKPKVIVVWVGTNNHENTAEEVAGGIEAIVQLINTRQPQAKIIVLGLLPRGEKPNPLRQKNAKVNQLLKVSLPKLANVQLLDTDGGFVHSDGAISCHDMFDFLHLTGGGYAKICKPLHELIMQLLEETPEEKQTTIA
UniProt P61289: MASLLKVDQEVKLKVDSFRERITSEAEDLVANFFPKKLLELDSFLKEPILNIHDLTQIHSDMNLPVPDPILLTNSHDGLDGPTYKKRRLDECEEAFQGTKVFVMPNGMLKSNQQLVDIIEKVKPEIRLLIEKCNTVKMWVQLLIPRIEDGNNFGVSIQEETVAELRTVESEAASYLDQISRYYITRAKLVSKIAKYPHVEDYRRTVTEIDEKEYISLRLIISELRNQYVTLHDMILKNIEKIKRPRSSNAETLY
UniProt P62314, whole entry: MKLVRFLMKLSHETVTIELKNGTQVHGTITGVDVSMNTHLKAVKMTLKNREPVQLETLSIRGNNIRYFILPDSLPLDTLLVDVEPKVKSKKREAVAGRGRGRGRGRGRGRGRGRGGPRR
UniProt P63098, whole entry, looked up: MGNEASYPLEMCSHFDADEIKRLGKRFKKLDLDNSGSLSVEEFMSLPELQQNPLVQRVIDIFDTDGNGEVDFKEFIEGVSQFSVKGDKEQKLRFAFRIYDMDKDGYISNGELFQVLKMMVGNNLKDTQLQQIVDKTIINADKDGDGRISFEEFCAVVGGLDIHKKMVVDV
UniProt P78346: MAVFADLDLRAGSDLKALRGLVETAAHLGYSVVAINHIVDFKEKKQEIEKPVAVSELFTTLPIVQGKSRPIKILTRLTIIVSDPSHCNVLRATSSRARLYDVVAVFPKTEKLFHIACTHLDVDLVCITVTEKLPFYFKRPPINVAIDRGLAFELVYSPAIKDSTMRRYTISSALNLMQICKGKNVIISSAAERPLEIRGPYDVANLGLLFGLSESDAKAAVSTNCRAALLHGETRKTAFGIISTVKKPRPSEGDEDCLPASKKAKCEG

Target | log2 fold change
UniProt P62841 (peptide sequence: QHSLLKR, peptide start residue: 53) | 0.48
RAB2A (peptide sequence: GAAGALLVYDITRR, peptide start residue: 78) (UniProt P61019) | -0.0568
UniProt P61254 (peptide sequence: KYVIYIER, peptide start residue: 77) | -0.174
RPS21 (peptide sequence: MQNDAGEFVDLYVPRK, peptide start residue: 1) (UniProt P63220) | 0.662
UniProt P62854 (peptide sequence: CTNCARCVPK, peptide start residue: 23) | 0.125
MAX (peptide sequence: DHIKDSFHSLR, peptide start residue: 37) (UniProt P61244) | 0.242
NAP1L1 (peptide sequence: YAVLYQPLFDKR, peptide start residue: 106) (UniProt P55209) | 0.222
VAMP2 (peptide sequence: LQQTQAQVDEVVDIMR, peptide start residue: 32) (UniProt P63027) | -0.177
C4ORF8 (peptide sequence: DIDLDSVDMDETEREVEYFKR, peptide start residue: 1215) (UniProt P78312) | 0.516
UniProt P82970 (peptide sequence: KAAGQGDMR, peptide start residue: 5) | 0.441
UniProt P68366 (peptide sequence: YMACCLLYRGDVVPK, peptide start residue: 312) | -0.157
GRB2 (peptide sequence: NQQIFLR, peptide start residue: 143) (UniProt P62993) | 0.131
RELN (peptide sequence: LSSYHNFYSIR, peptide start residue: 720) (UniProt P78509) | -0.515
RPS3A (peptide sequence: LFCVGFTKKR, peptide start residue: 137) (UniProt P61247) | 1.33
UniProt P62241 (peptide sequence: TRIIDVVYNASNNELVR, peptide start residue: 76) | 0.159
UniProt P62273 (peptide sequence: DIGFIKLD, peptide start residue: 49) | 0.175
UniProt P63313 (peptide sequence: NTLPTKETIEQEKR, peptide start residue: 27) | -0.0995
GFER (peptide sequence: FHGGNLFFLPGGAR, peptide start residue: 10) (UniProt P55789) | -0.146

Two entries from above in a different format.
Target	log2 fold change
RPS3A (peptide sequence: LFCVGFTKKR, peptide start residue: 137) (UniProt P61247)	1.33
UniProt P63313 (peptide sequence: NTLPTKETIEQEKR, peptide start residue: 27)	-0.0995

(list continues)

Target | log2 fold change
SLC35A2 (peptide sequence: GDLITEPFLPK, peptide start residue: 378) (UniProt P78381) | -0.0499
FAU (peptide sequence: RFVNVVPTFGK, peptide start residue: 115) (UniProt P62861) | 0.0931
UniProt P62834 (peptide sequence: SKINVNEIFYDLVR, peptide start residue: 150) | -0.188
ELL (peptide sequence: DVQKDWPGYSEGDQQLLKR, peptide start residue: 268) (UniProt P55199) | 0.318
UniProt P62829 (peptide sequence: RKDGVFLYFEDNAGVIVNNK, peptide start residue: 90) | -0.18
HADHB (peptide sequence: LEQDEYALR, peptide start residue: 239) (UniProt P55084) | -0.192
PAFAH1B2 (peptide sequence: GEKPNPLR, peptide start residue: 143) (UniProt P68402) | 0.618
RRP1 (peptide sequence: GVGADPEAR, peptide start residue: 395) (UniProt P56182) | -0.178
MRPS6 (peptide sequence: AMQRPETAATLK, peptide start residue: 12) (UniProt P82932) | 0.228
UniProt P61289 (peptide sequence: IAKYPHVEDYR, peptide start residue: 193) | -0.194
PTEN (peptide sequence: NHLDYRPVALLFHK, peptide start residue: 184) (UniProt P60484) | 0.236
UniProt P62314 (peptide sequence: NGTQVHGTITGVDVSMNTHLK, peptide start residue: 21) | -0.237
UniProt P61221 (peptide sequence: LCIEVTPQSK, peptide start residue: 37) | 0.462
WDR4 (peptide sequence: VSWAAAPHSIESFCLGHTEFVSR, peptide start residue: 171) (UniProt P57081) | -0.232
UniProt P63098 (peptide sequence: ISFEEFCAVVGGLDIHKK, peptide start residue: 148) | 0.382
UniProt P61927 (peptide sequence: RKYNWSAK, peptide start residue: 45) | 0.31
RPP30 (peptide sequence: PSEGDEDCLPASKK, peptide start residue: 250) (UniProt P78346) | 0.246
UniProt P62987 (peptide sequence: YNCDKMICR, peptide start residue: 89) | 0.17

Reference: the supplement of paper PMC12819154, “High-throughput peptide-centric local stability assay extends protein–ligand identification to membrane proteins, tissues and bacteria” (Nature Structural & Molecular Biology, 2025)
